Laboratory results: PubChem BioAssay AID493246 (Drosophila RNAi Screening Center, 2011)
Assay: 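Identify essential fly genes by loss of cell viability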 (primary screen). Cell system: Drosophila Kc and S2R+ cells. Reagents: long dsRNA against Drosophila genes. Read-out: 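Raw, unnormalised count of remaining cells in each well; per-plate z-scores of cell number underlie the calls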. Scale: Kc cell number and S2R+ cell number: higher = more cells remaining. Hit rule: 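Active when the per-plate z-score of cell number is 3 or more in the direction of fewer cells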.
In all, the deposit lists about 21,000 reagents; this is an unselected part of those that have a named target and a result. Over the whole deposit, 429 (2%) got an active call. 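Values are raw and not normalised between plates; calls rest on per-plate z-scores that were not deposited.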 The numbers tell different reagents against one gene apart. A plus sign joins genes that one reagent is predicted to hit. The record does not give: the amount of reagent, the time to read-out.

Silencing of CG5756 came out at: Kc cell number, rep 1 = 1.52e6; Kc cell number, rep 2 = 1.65e6; S2R+ cell number, rep 1 = 1.25e6; S2R+ cell number, rep 2 = 1.43e6; inactive.
After knock-down of CG11414, the screen gave Kc cell number, rep 1 = 1.38e6; Kc cell number, rep 2 = 1.44e6; S2R+ cell number, rep 1 = 1.21e6; S2R+ cell number, rep 2 = 1.30e6; inactive.
Silencing of spaw (spacewatch) gave: Kc cell number, rep 1 = 1.41e6; Kc cell number, rep 2 = 1.56e6; S2R+ cell number, rep 1 = 1.19e6; S2R+ cell number, rep 2 = 1.32e6; inactive.
After knock-down of Cwc25, the record shows Kc cell number, rep 1 = 1.64e6; Kc cell number, rep 2 = 1.73e6; S2R+ cell number, rep 1 = 1.04e6; S2R+ cell number, rep 2 = 1.19e6; inactive.
lncRNA:sphinx + ATPsynF scored Kc cell number, rep 1 = 1.60e6; Kc cell number, rep 2 = 1.55e6; S2R+ cell number, rep 1 = 9.08e5; S2R+ cell number, rep 2 = 1.03e6; inactive.
Depletion of crn (crooked neck) #1 came out at: Kc cell number, rep 1 = 9.00e5; Kc cell number, rep 2 = 1.07e6; S2R+ cell number, rep 1 = 8.16e5; S2R+ cell number, rep 2 = 9.34e5; active.
Depletion of crn (crooked neck) #2 came out at: Kc cell number, rep 1 = 1.09e6; Kc cell number, rep 2 = 1.25e6; S2R+ cell number, rep 1 = 8.57e5; S2R+ cell number, rep 2 = 9.39e5; inactive.
With knock-down of crn (crooked neck) #3, the record shows Kc cell number, rep 1 = 3.66e5; S2R+ cell number, rep 1 = 6.03e5; inactive.
For PH4alphaNE1 (prolyl-4-hydroxylase-alpha NE1), the values are Kc cell number, rep 1 = 5.35e5; S2R+ cell number, rep 1 = 8.21e5; inactive.
Knock-down of Egfrap (EGFR adaptor protein) #1 gave: Kc cell number, rep 1 = 1.67e6; Kc cell number, rep 2 = 1.52e6; S2R+ cell number, rep 1 = 1.14e6; S2R+ cell number, rep 2 = 1.20e6; inactive.
With knock-down of Egfrap (EGFR adaptor protein) #2 the results were Kc cell number, rep 1 = 1.71e6; Kc cell number, rep 2 = 1.63e6; S2R+ cell number, rep 1 = 1.13e6; S2R+ cell number, rep 2 = 1.25e6; inactive.
Against CG12009, the entry reads Kc cell number, rep 1 = 1.41e6; Kc cell number, rep 2 = 1.47e6; S2R+ cell number, rep 1 = 1.29e6; S2R+ cell number, rep 2 = 1.19e6; inactive.
Against CG5381 the deposit lists Kc cell number, rep 1 = 1.60e6; Kc cell number, rep 2 = 1.76e6; S2R+ cell number, rep 1 = 1.37e6; S2R+ cell number, rep 2 = 1.51e6; inactive.
With knock-down of CG31819, the screen gave Kc cell number, rep 1 = 1.53e6; Kc cell number, rep 2 = 1.61e6; S2R+ cell number, rep 1 = 1.04e6; S2R+ cell number, rep 2 = 1.26e6; inactive.
For Dnaaf5 (Dynein axonemal assembly factor 5) the deposit lists Kc cell number, rep 1 = 1.47e6; Kc cell number, rep 2 = 1.64e6; S2R+ cell number, rep 1 = 1.06e6; S2R+ cell number, rep 2 = 1.23e6; inactive.
After knock-down of Rlb1 the results were Kc cell number, rep 1 = 1.50e6; Kc cell number, rep 2 = 1.44e6; S2R+ cell number, rep 1 = 1.24e6; S2R+ cell number, rep 2 = 1.30e6; inactive.
Against RpS27 (Ribosomal protein S27), the values are Kc cell number, rep 1 = 1.19e6; Kc cell number, rep 2 = 1.14e6; S2R+ cell number, rep 1 = 7.82e5; S2R+ cell number, rep 2 = 9.04e5; inactive.
For CG14483, the values are Kc cell number, rep 1 = 1.68e6; Kc cell number, rep 2 = 1.78e6; S2R+ cell number, rep 1 = 1.18e6; S2R+ cell number, rep 2 = 1.36e6; inactive.
Against CG31650, the entry reads Kc cell number, rep 1 = 1.33e6; Kc cell number, rep 2 = 1.34e6; S2R+ cell number, rep 1 = 5.34e5; S2R+ cell number, rep 2 = 5.88e5; inactive.
CG13428 gave Kc cell number, rep 1 = 1.78e6; Kc cell number, rep 2 = 1.87e6; S2R+ cell number, rep 1 = 1.35e6; S2R+ cell number, rep 2 = 1.61e6; inactive.
For CG3081 the deposit lists Kc cell number, rep 1 = 1.62e6; Kc cell number, rep 2 = 1.47e6; S2R+ cell number, rep 1 = 1.08e6; S2R+ cell number, rep 2 = 1.19e6; inactive.

3 entries already listed, sorted by “Kc cell number, rep 1”, high to low.
lncRNA:sphinx + ATPsynF → Kc cell number, rep 1: 1.60e6; Kc cell number, rep 2: 1.55e6; S2R+ cell number, rep 1: 9.08e5; S2R+ cell number, rep 2: 1.03e6; activity call: inactive
crn (crooked neck) #2 → Kc cell number, rep 1: 1.09e6; Kc cell number, rep 2: 1.25e6; S2R+ cell number, rep 1: 8.57e5; S2R+ cell number, rep 2: 9.39e5; activity call: inactive
crn (crooked neck) #1 → Kc cell number, rep 1: 9.00e5; Kc cell number, rep 2: 1.07e6; S2R+ cell number, rep 1: 8.16e5; S2R+ cell number, rep 2: 9.34e5; activity call: active
